Reference: PubChem BioAssay AID1794845 (National Center for Advancing Translational Sciences (NCATS), 2023)
Screen size: about 6,900 compounds; fewer than 10 were called active. Calls come from the whole dose curve; as a rule, active = well fitted curve in the direction sought with a large enough effect; inconclusive = small, poorly fitted or top-dose-only effect, or another doubt; inactive = no such curve, though single readings can be large or run the other way. The list shows a part of the results.

Amino acid sequences for entries named in this document (tags omitted). A change or cut given only in a name is not applied to a line headed by its entry.
UniProt C7C422: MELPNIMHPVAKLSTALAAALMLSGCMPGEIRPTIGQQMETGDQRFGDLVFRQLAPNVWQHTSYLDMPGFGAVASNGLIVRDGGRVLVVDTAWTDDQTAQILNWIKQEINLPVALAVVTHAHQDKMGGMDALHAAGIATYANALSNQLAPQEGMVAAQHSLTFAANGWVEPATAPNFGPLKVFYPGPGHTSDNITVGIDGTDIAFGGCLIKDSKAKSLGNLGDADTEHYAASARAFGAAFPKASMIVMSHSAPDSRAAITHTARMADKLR

molecular target: Metallo-beta-lactamase type 2 (Klebsiella pneumoniae) (UniProt C7C422); assay: qHTS to identify inhibitors of the New Delhi Metallo-beta-lactamase (NDM): primary screen against the NCATS Gemini Collection; settings: NDM-1 enzyme, meropenem hydrolysis, absorbance 300 nm; at 38.4 µM (top of the series) unless noted; note: % of control where 0% means no effect
Summary of the method: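 NDM-1 at 2 nM final in 50 mM HEPES pH 7.0, 1 uM ZnSO4, 0.01% Tween20, preincubated >30 min with compound. Meropenem 50 uM final added; absorbance at 300 nm after 30 min.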

Activity % (negative = inhibition), inactive:
COCC1CCN(C(=O)[C@@H]2CN(c3cnccn3)C[C@H]2COC)CC1 -0.594%
COc1ccccc1CN1CCC(N2CC3CCCN3C2=O)CC1 (stereo not drawn) 0.519% [at 57.5 µM]
Cc1noc(C)c1[S+](=O)([O-])N(C)Cc1ccc(-c2ccccc2)cc1 1.01%
O=C(NC1C[C@H]2CC[C@@H](C1)N2C(=O)c1ccn[nH]1)c1ccncc1 (stereo partly drawn) 6.55%
COc1cccc(-c2cc(C(=O)N3CCN(c4ncccn4)CC3)c3cnn(C)c3n2)c1 16.6%
COCCn1c2c(c(=O)n1-c1ccccc1)CCN(C(=O)c1cc3ccccc3n1C)C2 54.7% [at 57.5 µM]
FC1(F)CN[C@H](c2nnc(C3CC3)o2)C1 15.1%
CC(CCc1ccccc1)NC(=O)CCn1ccn2nc3c(c2c1=O)CCCC3 (stereo not drawn) 12.2%
COc1ccc(-c2ccc3ncc(Nc4ccncc4)n3n2)cn1 8.16% [at 57.5 µM]
Cn1cnc(S(=O)(=O)N2CC(N(C3CCOCC3)S(C)(=O)=O)C2)c1 2.55%
CCC1CN(Cc2nc(CCOC)no2)CCC(=O)N1Cc1ccccc1 (stereo not drawn) -0.144%
COCC(=O)N1CCN2C(=O)N(C)C[C@H]2C1 -1% [at 77.1 µM]
COc1ccc(CNC(=O)C[C@@H]2O[C@H](CNC(=O)NC(C)C)[C@@H](O)[C@H]2O)cc1 29.8% [at 57.5 µM]
N#Cc1cccc(CN2CCCC2=O)c1 -5.73%
CC(C)(C)CN[C@@H](Cn1cc(F)c(=O)[nH]c1=O)C(=O)O -0.465% [at 77.1 µM]
O=[S+]([O-])(c1cccs1)N1CCN(c2nc3ncccc3o2)CC1 18.8%
COCC(=O)NC[C@H]1OC[C@@H](NC(C)C)[C@@H]1O -6.42% [at 77.1 µM]
Cc1cnn(C(C)C(=O)N2CCC3(CCC(=O)N(C4CC4)C3)CC2)c1 (stereo not drawn) -0.125%
C[C@@H]1CN(C[C@@H]2CN(C(=O)c3ccc(Cl)o3)C[C@@H]2CO)C[C@H](C)O1 -7.7%
CN(Cc1cccn1C)C(=O)c1ccc(Cl)nc1 0.195% [at 57.5 µM]
O=S(=O)(c1ccc(F)cc1)N1CCCC(CN2CCOCC2)CC1 (stereo not drawn) -1.19%
COC(=O)Nc1cc(-c2ccncc2)nn1C 0.145% [at 57.5 µM]
O=C(NCc1ccc2c(c1)OCO2)C1CCN(c2cn[nH]c(=O)c2)C1 (stereo not drawn) 16.5%
Cc1cnc(-c2ccccc2)n1CCNC(=O)CCC1CCCC1 -0.514%
O=C(C[C@@H]1C[C@H]2O[C@H](CNC3Cc4ccccc4C3)[C@@H](O)[C@H]2O1)N1CCC(F)(F)C1 32.3% [at 57.5 µM]
COc1cccc(-c2noc(CN3CCC(c4nc(-c5cccn5C)no4)C3)n2)c1OC (stereo not drawn) 0.66%
O=C(Nc1ccccc1F)N1CC(Oc2cccc(-c3nc(-c4ccccc4)no3)c2)C1 4.92%
CC(C)N(Cc1nccn1C)C(=O)CC(c1ccccc1)c1ccccc1F (stereo not drawn) 23%
COc1cc(OC)cc(C(=O)NCC2CCCN(C(=O)CCNC(C)=O)C2)c1 (stereo not drawn) 1.73%
O=C(c1ccccc1)N1CC2(CCNC2)OCc2ccccc21 (stereo not drawn) 0.739%
CC(=O)NC[C@H]1OC[C@@H](NCC(C)(C)C)[C@@H]1O -0.105% [at 77.1 µM]
O=S(=O)(NCC1(COc2cnccn2)C[C@@H](O)[C@@H](O)C1)c1ccc(F)cc1 (stereo partly drawn) -5.86% [at 57.5 µM]
Cc1nc2cnccn2c1C(=O)N1CCC(C#N)CC1 7.45% [at 57.5 µM]
C[C@@H]1CN(C(=O)NCC2CCCCC2)CC[C@@]1(O)C1CCOCC1 -2.53%
Cc1ccc2nc(C(NC(=O)C3CCN(CC(N)=O)CC3)C(C)C)[nH]c2c1 (stereo not drawn) -0.481%
Cc1nccn1CCC(NC(=O)c1cn(CCN)nn1)c1ccccc1 (stereo not drawn) -1.6%
COc1ccc(C(=O)N2CCN(c3nnc4ccccn34)CC2)cc1OC 0.836%
CCOC(=O)C(Cc1cccc(N2CCN(C(=O)OC(C)(C)C)CC2)c1)OC (stereo not drawn) 0.858%
CC(=O)c1ccc(NC(=O)N[C@H]2CCN3C(=O)[C@@H](Cc4ccccc4)NC(=O)[C@H]23)cc1 13.7% [at 57.5 µM]
CC(C)Cc1nnc(NC(=O)C[C@H]2NC(=O)c3ccccc3NC2=O)s1 -1.18%
CC(=O)Nc1cccc(-c2ccnc(-c3nnc(C)n3Cc3ccccc3)c2)c1 3.84% [at 57.5 µM]
O=C1C(N2CCN(Cc3ccc[nH]3)CC2)CCN1CCc1ccccc1 (stereo not drawn) -8.25%
CC(C)CNC(=O)c1nc(-c2ccc(Cl)cc2)c2cnccn12 4.98% [at 57.5 µM]
CCN1C(=O)CCc2cc(NC(=O)c3ccc(F)cc3)ccc21 10.2%
CN(C)[C@H]1CCN(C(=O)Cc2cn(C)c3ccccc23)C[C@H]1CCC(=O)O 8.7%
O=C1NC2(CCN(C(=O)c3ccc4c(c3)OCO4)C2)Oc2ccccc21 (stereo not drawn) 9.35%
Cc1cccc(C(=O)N2CCCC(c3nnnn3-c3ccccc3)C2)c1 (stereo not drawn) 3.19%
CCC1CN(C(=O)c2ccc(NCc3cnn(CC)c3)nc2)CCN1C(C)C (stereo not drawn) 1.35%
CO[C@H]1C[C@@H](O)C12CCN(C(=O)CCc1ccc(-c3cccs3)o1)CC2 12.1%
COc1cccc(CN2CCOC[C@H](Oc3ccc(C(F)(F)F)cn3)C2)c1 -0.546% [at 57.5 µM]
Cc1cnc(CC2CCN(S(=O)(=O)c3ccc4c(c3)CCC4)CC2)n1CC1CC1 12.7%
O=C([C@@H]1C[C@H](F)CN1S(=O)(=O)Cc1ccccc1Cl)N1CCCCC1 1.06%
COc1cncc([C@@H](NC(=O)CCc2c(C)noc2C)C2CC(O)C2)c1 (stereo partly drawn) 3.81%
CNC(=O)c1ccc(CN2CC3(CCN(C(C)=O)CC3)CC2C(=O)O)o1 (stereo not drawn) 40.2%
CCN(Cc1noc(C)n1)C(=O)c1coc(COc2ccc3c(c2)OCO3)n1 0.976%
O=C1N[C@H](CC(=O)N2CCN(Cc3ccccc3Cl)CC2)C(=O)Nc2ccccc21 0.0445%
COC(=O)N1CC(CN2C(=O)c3c(c(C)nn3-c3ccccc3)C2C)C1 (stereo not drawn) 4.48%
CSCc1noc(Cn2nc(C)c3ccccc3c2=O)n1 -1.17%
Cc1cnc(CCNS(=O)(=O)c2cccc(F)c2)n1Cc1ccccc1 12.9%
O=C1N(Cc2ccc(F)c(F)c2)CCCC12CCN(c1nc3ccccc3o1)C2 (stereo not drawn) 0.978%
COc1ccc(CNC(=O)[C@@H]2CCC[C@@H](NC(=O)C3CC3)CN(C)C(=O)C2)cc1 0% [at 57.5 µM]
COc1cccc([C@@H]2CN(C(=O)c3cc(C)oc3C)C[C@H]2C(=O)O)c1OC 1.74%
COc1ccc(-n2nc3n(c2=O)CCN(C(=O)c2ccccc2F)C3)cc1 14.8%
O=S(=O)(c1cccc(F)c1)N1CC[C@@H]2COCCN(Cc3ccccc3)[C@@H]2C1 -0.511%
O=C(NCc1nnc2cc(-c3nc(C4CC4)no3)ccn12)C1(c2ccccc2)CC1 5.22%
CCc1nc2c(c(-c3ccc(Cl)cc3)n1)CCN(Cc1ccnn1C)CC2 2.26%
C[S+](=O)([O-])N1CCC2(CC1)C(=O)NN=C2c1ccccn1 27.7% [at 57.5 µM]
CN1C[C@@H](NC(=O)CC(C)(C)CC(=O)O)C[C@H]1c1nc(-c2ccc3c(c2)OCO3)no1 16.1% [at 57.5 µM]
Cc1cc(=O)n(CC(=O)NCc2ccccc2Cl)c(N(C)Cc2ccccc2)n1 4.06%
C[S+](=O)([O-])N1CC2(Cc3ccccc31)CN(C(=O)NC1CCCC1)C2 -2.88%
CN(C)C[C@H]1C[C@@H](CO)CN(C(=O)c2csc(Cc3ccccc3)n2)C1 6.51%
CCC(C)NC(=O)N1CC(c2nc(CCOCC3CCOCC3)no2)C1 (stereo not drawn) 4.98%
COc1cccc(CC(=O)NCc2ccc(Cl)s2)c1 -7%
CCNc1nccc(N2CCC(CC(=O)N3CCN(c4ccccc4F)CC3)CC2)n1 25.4%
CN(Cc1cccc(N2CCN(Cc3c(Cl)ccc(Cl)c3Cl)CC2)c1)[S+](C)(=O)[O-] 17.3%
CCNC(=O)CN1CCC(=O)N(Cc2ccc(F)cc2)C(C(C)C)C1 (stereo not drawn) 3.86%
O=C(Nc1nn(Cc2ccccc2)c2cccc(N3CCOCC3)c12)C1CCC1 43.7%
O=C(c1cccn2cncc12)N1CCOCC1 14% [at 57.5 µM]
COc1nc2nc(CC3CC3)n(C)c2cc1-c1ccc(O)c(F)c1 23.9% [at 57.5 µM]
NC(=O)[C@@H](Cc1c[nH]c2ccccc12)NC(=O)[C@H]1CN(C(=O)C2CCNCC2)CCN1C(=O)N1CCOCC1 39.9%
C[C@]1(CO)C2CC[C@@H](O)[C@@H](CC(=O)N3CCC[C@H]3CO)[C@]2(C)CC[C@H]1OC(=O)Nc1cccc(F)c1 (stereo partly drawn) -10.5%
COc1ccc(C(=O)N2CCN(c3cc(-c4cccs4)[nH]n3)CC2)cc1OC 14.6%
COc1ccc(S(=O)(=O)NCCNc2cc(C)nc3ccnn23)cc1 14.3%

Filtered by structure, the compounds so far with a furan ring, fused or not
Activity % (negative = inhibition), inactive:
C[C@@H]1CN(C[C@@H]2CN(C(=O)c3ccc(Cl)o3)C[C@@H]2CO)C[C@H](C)O1 -7.7%
CO[C@H]1C[C@@H](O)C12CCN(C(=O)CCc1ccc(-c3cccs3)o1)CC2 12.1%
CNC(=O)c1ccc(CN2CC3(CCN(C(C)=O)CC3)CC2C(=O)O)o1 (stereo not drawn) 40.2%
COc1cccc([C@@H]2CN(C(=O)c3cc(C)oc3C)C[C@H]2C(=O)O)c1OC 1.74%

A draw from above in order of count of non-hydrogen atoms, ascending:
Activity % (negative = inhibition), inactive:
COCC(=O)N1CCN2C(=O)N(C)C[C@H]2C1 -1% [at 77.1 µM]
CCC(C)NC(=O)N1CC(c2nc(CCOCC3CCOCC3)no2)C1 (stereo not drawn) 4.98%
Cc1ccc2nc(C(NC(=O)C3CCN(CC(N)=O)CC3)C(C)C)[nH]c2c1 (stereo not drawn) -0.481%
